Taken from: PubChem BioAssay AID1259308 (NCATS, 2017)
This is an unselected part of about 59,000 deposited reagents. About 1,510 of all reagents (2.6%) were called active. 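Calls use total luciferase alone and ignore viability, so some active siRNAs may act by altering cell number.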 Unmarked entries are inactive. Reagents against one gene are numbered here. No sequences are given here.

Aim: 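Candidate targets for better recombinant protein yield in mammalian cells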 (primary screen)
Cells: human HEK293 embryonic kidney cells stably expressing firefly luciferase (HEK-CMV-Luc2-Hygro)
Reagent: single siRNA against human genes, 0.8 pmol siRNA per well
Time to read-out: 72 h
Measurement: 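Reporter luminescence and viable-cell signal on separate replicate plates, given as percent of non-targeting control and median/MAD z-scores, plus per-cell luciferase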
Reading the numbers: total luciferase, z-score and total luciferase, % of control: higher = more reporter protein produced; luciferase per cell, z-score: higher = more reporter output per viable cell; viable cells, % of control: higher = more viable cells
Active means: 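Active when the median/MAD z-score for overall luciferase is greater than 3; a gene was taken forward for validation with new siRNAs if at least two of its three siRNAs passed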
Calls: active = raised luciferase; inactive = no rise

gene knocked down | reagent | total luciferase, z-score | total luciferase, % of control | luciferase per cell, z-score | viable cells, % of control
RIMS4 | 1 | 0.824 | 98.3 | 0.587 | 94.1
RIMS4 | 2 | 1 | 102 | 0.743 | 93.6
RIMS4 | 3 | 1.45 | 111 | 0.936 | 96.7
PAFAH2 | 1 | 0.169 | 85.2 | -0.0998 | 97.8
PAFAH2 | 2 | -0.516 | 71.6 | -0.827 | 99.5
PAFAH2 | 3 | 1.57 | 113 | 1.32 | 89.2
NECAB1 | 1 | -0.421 | 73.5 | 0.248 | 76.9
NECAB1 | 2 | -0.583 | 70.3 | -0.31 | 85.2
NECAB1 | 3 | -0.778 | 66.4 | -0.974 | 95.9
RGS16 | 1 | 0.569 | 93.2 | 1.44 | 71.4
RGS16 | 2 | -0.0145 | 81.6 | -0.543 | 105
RGS16 | 3 | -0.416 | 73.6 | -1.34 | 117
ENPP1 | 1 | 1.17 | 105 | 0.751 | 96.5
ENPP1 | 2 | 0.507 | 92 | -0.331 | 112
ENPP1 | 3 | -1.39 | 54.3 | -1.44 | 88.6
GHITM | 1 | 0.453 | 90.9 | 0.707 | 84.3
GHITM | 2 | -0.45 | 72.9 | -0.621 | 96
GHITM | 3 | 2.37 | 129 | 1.13 | 107
HAVCR2 | 1 | 1.55 | 113 | 2.22 | 70.3
HAVCR2 | 2 | -0.0857 | 80.2 | -0.722 | 108
HAVCR2 | 3 | -1.37 | 54.7 | -1.89 | 101
EPHA8 | 1 | 0.109 | 84.1 | -0.212 | 99.3
EPHA8 | 2 | 0.00463 | 82 | 0.619 | 77.8
EPHA8 | 3 | -0.549 | 71 | -1.12 | 107

A stretch taken from the entries so far:
gene knocked down | reagent | total luciferase, z-score | total luciferase, % of control | luciferase per cell, z-score | viable cells, % of control
ENPP1 | 3 | -1.39 | 54.3 | -1.44 | 88.6
GHITM | 1 | 0.453 | 90.9 | 0.707 | 84.3
GHITM | 2 | -0.45 | 72.9 | -0.621 | 96
